Values of other authors, collected in US20240277632A1, “Epinephrine Pharmaceutical Formulations for Intranasal Delivery” (priority 2020, published 2024).
At least one structure is not confirmed: it was looked up by name or label, or the drawing left a doubt.

Details: cited from earlier work

Compound | CMC (critical micelle concentration)
C[C@H](CCC(=O)NCC(=O)[O-])[C@H]1CC[C@H]2[C@@H]3[C@H](O)C[C@@H]4C[C@H](O)CC[C@]4(C)[C@H]3C[C@H](O)[C@]12C.[Na+] [SGC, sodium glycocholate] | 2 to 5 mM
C[C@H](CCC(=O)[O-])[C@H]1CC[C@H]2[C@@H]3[C@H](O)C[C@@H]4C[C@H](O)CC[C@]4(C)[C@H]3C[C@H](O)[C@]12C.[Na+] [SC, sodium cholate] | ~4 mM
